PubChem BioAssay AID493246 – Drosophila RNAi Screening Center | 2011
The deposit covers about 21,000 reagents; this is an unselected part of those that have a named target and a result. Of all reagents, 429 (2%) got an active call. 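Values are raw and not normalised between plates; calls rest on per-plate z-scores that were not deposited.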 A plus sign joins genes that one reagent is predicted to hit. Not stated in the record: the amount of reagent, the time to read-out.

Screen: 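Genome-wide search for dsRNAs that reduce cell number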 (primary screen)
System: Drosophila Kc and S2R+ cells
Reagent: long dsRNA against Drosophila genes
Measured: 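Cell number per well after knock-down, printed as raw plate values; calls were based on per-plate z-scores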
Reading the numbers: Kc cell number and S2R+ cell number: higher = more cells remaining
Rule for the call: 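Counted as a hit if cell number falls by a z-score of at least 3 within its plate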

RpL28 + snoRNA:Or-CD12 [DRSC08293] | Kc cell number, rep 1: 1.15e6; Kc cell number, rep 2: 1.08e6; S2R+ cell number, rep 1: 6.19e5; S2R+ cell number, rep 2: 7.59e5; outcome: active
ths (thisbe) [DRSC06153] | Kc cell number, rep 1: 1.20e6; Kc cell number, rep 2: 1.44e6; S2R+ cell number, rep 1: 8.04e5; S2R+ cell number, rep 2: 9.05e5; outcome: inactive
CG12519 [DRSC10311] | Kc cell number, rep 1: 1.43e6; Kc cell number, rep 2: 1.55e6; S2R+ cell number, rep 1: 1.24e6; S2R+ cell number, rep 2: 1.31e6; outcome: inactive
beat-IIIc (beaten path IIIc) [DRSC02438] | Kc cell number, rep 1: 1.87e6; Kc cell number, rep 2: 1.88e6; S2R+ cell number, rep 1: 1.42e6; S2R+ cell number, rep 2: 1.56e6; outcome: inactive
beat-IIIc (beaten path IIIc) [DRSC02949] | Kc cell number, rep 1: 1.58e6; Kc cell number, rep 2: 1.74e6; S2R+ cell number, rep 1: 1.17e6; S2R+ cell number, rep 2: 1.34e6; outcome: inactive
upd1 (unpaired 1) [DRSC20358] | Kc cell number, rep 1: 1.51e6; Kc cell number, rep 2: 1.54e6; S2R+ cell number, rep 1: 1.14e6; S2R+ cell number, rep 2: 1.18e6; outcome: inactive

Reformatted: 2 of the entries above
Target gene	amplicon	Kc cell number, rep 1	Kc cell number, rep 2	S2R+ cell number, rep 1	S2R+ cell number, rep 2	outcome
beat-IIIc (beaten path IIIc)	DRSC02949	1.58e6	1.74e6	1.17e6	1.34e6	inactive
upd1 (unpaired 1)	DRSC20358	1.51e6	1.54e6	1.14e6	1.18e6	inactive

The listing continues.
Or94a (Odorant receptor 94a) [DRSC16772] | Kc cell number, rep 1: 1.49e6; Kc cell number, rep 2: 1.46e6; S2R+ cell number, rep 1: 9.63e5; S2R+ cell number, rep 2: 1.03e6; outcome: inactive
CG9875 [DRSC04585] | Kc cell number, rep 1: 1.63e6; Kc cell number, rep 2: 1.65e6; S2R+ cell number, rep 1: 1.30e6; S2R+ cell number, rep 2: 1.41e6; outcome: inactive
CG33296 [DRSC00998] | Kc cell number, rep 1: 1.37e6; Kc cell number, rep 2: 1.44e6; S2R+ cell number, rep 1: 9.09e5; S2R+ cell number, rep 2: 1.04e6; outcome: inactive
CG32473 [DRSC14352] | Kc cell number, rep 1: 1.46e6; Kc cell number, rep 2: 1.48e6; S2R+ cell number, rep 1: 1.06e6; S2R+ cell number, rep 2: 1.20e6; outcome: inactive
CG32473 [DRSC16446] | Kc cell number, rep 1: 1.69e6; Kc cell number, rep 2: 1.61e6; S2R+ cell number, rep 1: 1.30e6; S2R+ cell number, rep 2: 1.42e6; outcome: inactive
mip120 (Myb-interacting protein 120) [DRSC06960] | Kc cell number, rep 1: 1.60e6; Kc cell number, rep 2: 1.69e6; S2R+ cell number, rep 1: 1.38e6; S2R+ cell number, rep 2: 1.39e6; outcome: inactive
CG12391 [DRSC06147] | Kc cell number, rep 1: 1.32e6; Kc cell number, rep 2: 1.44e6; S2R+ cell number, rep 1: 1.04e6; S2R+ cell number, rep 2: 1.03e6; outcome: inactive
danr (distal antenna-related) [DRSC14651] | Kc cell number, rep 1: 1.59e6; Kc cell number, rep 2: 1.72e6; S2R+ cell number, rep 1: 1.03e6; S2R+ cell number, rep 2: 1.10e6; outcome: inactive
